# Part of at least one peptide drawing is inferred or uncertain, most often the ends. For some of these results: At least one structure is not confirmed: it was looked up by name or label, or the drawing left a doubt. Square brackets hold non-standard residues; d marks the D form. Peptide text beside a SMILES is read from it.
# Chains of the proteins cited; added tags and fusions are not shown. Residues count along the entry.
# UniProt P43220, 24-463: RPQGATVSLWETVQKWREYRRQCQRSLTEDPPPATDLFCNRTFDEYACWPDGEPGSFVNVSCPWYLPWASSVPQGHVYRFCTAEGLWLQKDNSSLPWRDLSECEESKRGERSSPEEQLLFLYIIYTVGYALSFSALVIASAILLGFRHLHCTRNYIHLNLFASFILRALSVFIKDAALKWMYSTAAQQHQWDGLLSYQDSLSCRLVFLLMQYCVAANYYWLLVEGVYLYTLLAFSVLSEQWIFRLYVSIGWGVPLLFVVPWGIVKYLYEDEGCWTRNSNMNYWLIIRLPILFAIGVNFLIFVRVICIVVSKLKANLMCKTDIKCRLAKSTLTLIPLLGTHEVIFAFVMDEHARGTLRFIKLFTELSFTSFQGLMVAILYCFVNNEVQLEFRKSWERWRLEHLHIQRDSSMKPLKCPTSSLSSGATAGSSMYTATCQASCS
# What was measured:
# GLP1 receptor (GLP1R) = biological target: T1, GLP1 receptor (GLP1R) (Homo sapiens, UniProt P43220); experiment: CRE-luciferase reporter assay in HEK293 cells stably expressing GLP1R; assay type: cell-based; settings: for luciferase expression (in words): GLP1 receptor expressing HEK293 cells
# T1 construct: expressed in transfected cells; host or cells: HEK293
# GLP1R = biological target: T2, GLP1R (Homo sapiens, UniProt P43220); experiment: Phospho-ERK1/2 Western blot in HEK293 cells expressing GLP1R; assay type: cell-based
# T2 construct: expressed in transfected cells; host or cells: HEK293
SMILES,luciferase expression (in words) (GLP1 receptor (GLP1R)),potency lower than the native peptide (GLP1 receptor (GLP1R); (D)-GLP1 versus native (L)-peptide) [fold],ERK activation (increase in phospho-ERK1/2) (GLP1R; 10 μM peptide),duration of phospho-ERK1/2 signal (GLP1R; 10 μM peptide),time of maximum level of phospho-ERK1/2 post-stimulation (GLP1R; 10 μM peptide),half-life increase indicated by phospho-ERK experiments (GLP1R; activity duration versus (L)-GLP1) [fold]
"C=C[C@@]1(C)CC(=O)[C@]2(O)[C@@]3(C)[C@@H](O)CCC(C)(C)[C@@H]3[C@H](O)[C@H](OC(C)=O)[C@@]2(C)O1 [Forskolin, reference compound]",cAMP-inducible luciferase expression was observed,–,–,–,–,–
CC[C@@H](C)[C@@H](NC(=O)[C@@H](C)NC(=O)[C@@H](CCC(=O)O)NC(=O)[C@H](NC(=O)[C@@H](CC(C)C)NC(=O)[C@@H](CCC(=O)O)NC(=O)CNC(=O)[C@@H](C)NC(=O)[C@@H](C)NC(=O)[C@@H](CC(C)C)NC(=O)[C@H](NC(=O)[C@@H](Cc1ccccc1)NC(=O)[C@@H](CC(C)C)NC(=O)[C@@H](CCC(=O)O)NC(=O)[C@@H](CC(C)C)NC(=O)[C@@H](Cc1ccccc1)NC(=O)[C@@H](C)NC(=O)[C@@H](CCCCN)NC(=O)CNC(=O)[C@H](N)CCCNC(=N)N)[C@H](C)CC)[C@H](C)CC)C(=O)N[C@H](CC(=O)O)C(=O)N[C@H](CCCNC(=N)N)C(=O)N[C@@H](C(=O)N[C@H](Cc1ccccc1)C(=O)N[C@@H](C(=O)NCC(=O)N[C@H](CCC(=O)O)C(=O)N[C@H](C)C(=O)N[C@H](Cc1c[nH]cn1)C(=O)O)[C@H](C)O)[C@H](C)O [(D)-GLP1] (H-[dR]G[dK][dA][dF][dL][dE][dL][dF][dI][dL][dA][dA]G[dE][dL][dI][dE][dA][dI][dD][dR][dT][dF][dT]G[dE][dA][dH]-OH; N-terminus and C-terminus assumed),also increased luciferase expression,~40,activated ERK1/2,sustained after 120 min,around 60 min,~5

# Reference: patent US20210057047A1, “IN-SILICO METHOD FOR DESIGNING A (D)-POLYPEPTIDE LIGAND” (THE GOVERNING COUNCIL OF THE UNIVERSITY OF TORONTO, priority 2018, published 2021)
